Experimental data published in PMC3870133.
Results are given in words; binding and its absence hold for the method and conditions named. In cells and extracts the contact can be indirect. Here binding means that the protein was enriched with, or labelled near, the bait; the list need not be complete.

Sequences of proteins named here, by UniProt entry; tags and fusion partners are left off. A change or cut given only in a name is not applied to a line headed by its entry.
UniProt P30561: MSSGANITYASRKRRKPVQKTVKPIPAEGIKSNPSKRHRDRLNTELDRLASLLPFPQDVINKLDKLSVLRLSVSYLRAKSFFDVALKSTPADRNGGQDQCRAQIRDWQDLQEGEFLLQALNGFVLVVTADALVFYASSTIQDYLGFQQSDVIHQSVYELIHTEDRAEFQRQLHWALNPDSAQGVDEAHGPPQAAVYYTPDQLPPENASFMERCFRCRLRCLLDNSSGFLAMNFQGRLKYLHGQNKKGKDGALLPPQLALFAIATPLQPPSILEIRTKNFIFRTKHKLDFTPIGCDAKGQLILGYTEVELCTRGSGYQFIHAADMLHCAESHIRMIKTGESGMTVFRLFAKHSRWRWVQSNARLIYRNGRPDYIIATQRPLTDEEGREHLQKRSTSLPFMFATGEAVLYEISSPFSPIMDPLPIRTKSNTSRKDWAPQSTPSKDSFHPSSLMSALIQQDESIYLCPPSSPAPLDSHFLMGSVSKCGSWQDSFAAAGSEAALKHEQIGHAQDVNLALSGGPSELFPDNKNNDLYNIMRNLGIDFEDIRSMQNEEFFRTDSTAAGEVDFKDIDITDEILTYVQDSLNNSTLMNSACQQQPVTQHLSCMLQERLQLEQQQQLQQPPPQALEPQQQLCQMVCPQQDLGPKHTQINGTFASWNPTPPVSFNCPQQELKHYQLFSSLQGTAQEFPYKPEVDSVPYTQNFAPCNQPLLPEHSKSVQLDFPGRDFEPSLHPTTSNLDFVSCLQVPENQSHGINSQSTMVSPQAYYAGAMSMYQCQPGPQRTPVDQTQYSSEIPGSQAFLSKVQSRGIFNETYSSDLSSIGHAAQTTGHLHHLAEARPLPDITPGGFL

B1: Enhancer-trap-locus-1 (Smarcad SWI/SNF-related) (protein, UniProt Q04692 1-1021)
chain: MNLFNLDRFRFEKRSKIEEAPEAAPQPSQARPSSPISLSAEEENAEGEGSRANTPDSDVTEKTEDSSVPEPPDNERKASLSCFQNQRAIQEYIDLSSDTEDVSPNCSSTVQEKKFSKDTVIIVSEPSEDEESHDLPSVTRRNDSSELEDLSELEDLKDAKLQTLKELFPQRSDSDLLKLIESTSTMDGAIAAALLMFGDAGGGPRKRKLSSSSEEDDVNDDQSVKQPRGDRGEESNESAEASSNWEKQESIVLKLQKEFPNFDKQELREVLKEHEWMYTEALESLKVFAEDQDVQCASQSEVTNGKEVARNQNYSKNATKIKMKQKISVKPQNGFNKKRKKNVFNPKKAVEDSEYDSGSDAGSSLDEDYSSCEEVMEDGYKGKILHFLQVSSIAELTLIPKCSQKKAQKITELRPFNNWEALFTKMSKINGLSEDLIWNCKTVIQERDVVIRLMNKCEDISNKLTKQVTMLTGNGGGWNREQPSLLNQSLSLKPYQKVGLNWLALVHKHGLNGILADEMGLGKTIQAIAFLAYLFQEGNKGPHLIVVPASTIDNWLREVNLWCPSLNVLCYYGSQEERKQIRFNIHNKYEDYNVIVTTYNCAISSSDDRSLFRRLKLNYAIFDEGHMLKNMGSIRYQHLMTINARNRLLLTGTPVQNNLLELMSLLNFVMPHMFSSSTSEIRRMFSSKTKPADEQSIYEKERIAHAKQIIKPFILRRVKEEVLKLLPPKKDRIELCAMSEKQEQLYSGLFNRLKKSINNLEKNTEMCNVMMQLRKMANHPLLHRQYYTPEKLKEMSQLMLKEPTHCEANPDLIFEDMEVMTDFELHVLCKQYQHINSYQLDMDLILDSGKFRALGCILSELKQKGDRVVLFSQFTMMLDILEVLLKHHQHRYLRLDGKTQISERIHLIDEFNTDMDIFVFLLSTKAGGLGINLTSANVVILHDIDCNPYNDKQAEDRCHRVGQTKEVLVIKLISQGTIEESMLKINQQKLKLEQDMTTVDEADEGSMPADIATLLKTSMGL
B2: activated leukocyte cell adhesion molecule CD166 (Alcam) (protein, UniProt Q61490 28-583)
chain: WYTVNSAYGDTIVMPCRLDVPQNLMFGKWKYEKPDGSPVFIAFRSSTKKSVQYDDVPEYKDRLSLSENYTLSIANAKISDEKRFVCMLVTEDNVFEAPTLVKVFKQPSKPEIVNKAPFLETDQLKKLGDCISRDSYPDGNITWYRNGKVLQPVEGEVAILFKKEIDPGTQLYTVTSSLEYKTTRSDIQMPFTCSVTYYGPSGQKTIYSEQEIFDIYYPTEQVTIQVLPPKNAIKEGDNITLQCLGNGNPPPEEFMFYLPGQPEGIRSSNTYTLTDVRRNATGDYKCSLIDKRNMAASTTITVHYLDLSLNPSGEVTKQIGDTLPVSCTISASRNATVVWMKDNIRLRSSPSFSSLHYQDAGNYVCETALQEVEGLKKRESLTLIVEGKPQIKMTKKTDPSGLSKTIICHVEGFPKPAIHWTITGSGSVINQTEESPYINGRYYSKIIISPEENVTLTCTAENQLERTVNSLNVSAISIPEHDEADDISDENREKVNDQAKLIVGIVVGLLLAALVAGVVYWLYMKKSKTASKHVNKDLGNMEENKKLEENNHKTEA
B3: ubiquitin associated protein 2-like (Ubap2l) (protein, UniProt Q80X50 1-1107)
chain: MMTSVGTNRARGNWEQPQNQNQTQHKQRPQATAEQIRLAQMISDHNDADFEEKVKQLIDITGKNQDECVIALHDCNGDVNRAINVLLEGNPDTHSWEMVGKKKGVSGQKDGGQTESNEEGKENRDRDRDYSRRRGGPPRRGRGASRGREFRGQENGLDGTKSGGPSGRGTDRGRRGRGRGRGSSGRRGGRFSAQGMGTFNPADYAEPANTDDNYGNSSGNTWNNTGHFEPDDGTRLDFIGVEGSNYPRKFETAPGAWRTATEEWGTEDWNEDLSETKIFTASNVSSVPLPAENVTITAGQRIDLAVLLGKTPSSMENDSSNLDPSQAPSLAQPLVFSNSKQNAISQPASGSTFSHHSMVSMLGKGFGDVGEAKGGSTTGSQFLEQFKTAQALAQLAAQHSQSGSTTTSSWDMGSTTQSPSLVQYDLKSANDSTVHSPFTKRQAFTPSSTMMEVFLQEKPPAVATSTAAPPPPSSPLPSKSTSAPQMSPGSSDNQSSSPQPAQQKLKQQKKKTSLTSKIPALAVEMPGSADISGLNLQFGALQFGSEPVLSDYESTPTTSASSSQAPSSLYTSTASESSSTVSSNQSQESGYQSGPIQSTTYTSQNNAQGPLYEQRSTQTRRYPSSISSSPQKDLTQAKNGFSSVQATQLQTTQSVEGATGSAVKSESPSTSSIPSLNETVPAASLLTTANQHSSSLSGLSHTEEIPNTTTTQHSSALSTQQNTLSSSTSSGRTSTSTLLHTSVESEANLHSSSSTFSTTSSTVSAPPPVVSVSSSLNSGSSLGLSLGSNSTVTASTRSSVATTSGKAPPNLPPGVPPLLPNPYIMAPGLLHAYPPQVYGYDDLQMLQTRFPLDYYSIPFPTPTTPLTGRDGSLASNPYSGDLTKFGRGDASSPAPATTLAQPQQNQTQTHHTTQQTFLNPALPPGYSYTSLPYYTGVPGLPSTFQYGPAVFPVAPTSSKQHGVNVSVNASATPFQQPSGYGSHGYNTGVSVTSSNTGVPDISGSVYSKTQQSFEKQGFHSGTPAASFNLPSALGSGGPINPATAAAYPPAPFMHILTPHQQPHSQILHHHLQQDGQTGSGQRSQTSSIPQKPQTNKSAYNSYSWGAN
B4: aryl-hydrocarbon receptor-interacting protein (AIP) (protein, UniProt O08915 1-330)
chain: MADLIARLREDGIQKRVIQEGRGELPDFQDGTKATFHFRTLHSDNEGSVIDDSRTRGKPMELIVGKKFKLPVWETIVCTMREGEIAQFLCDIKHVVLYPLVAKSLRNIAEGKDPLEGQRHCCGIAQMHEHSSLGHADLDALQQNPQPLIFHIEMLKVESPGTYQQDPWAMTDEEKAKAVPVIHQEGNRLYREGQVKEAAAKYYDAIACLKNLQMKEQPGSPDWIQLDLQITPLLLNYCQCKLVAQEYYEVLDHCSSILNKYDDNVKAYFKRGKAHAAVWNAQEAQADFAKVLELDPALAPVVSRELRALETRIRQKDEEDKARFRGIFSH
B5: mitochondrial ribosomal protein L40 (Mrpl40) (protein, UniProt Q9Z2Q5 47-206)
chain: AEPLRKKKKVDPRKDQAAKDRLKKRIRKLEKASQELIPIEDFITPVRFLDKSRQRPQEEHSPEESERRALLLKRWALFKQQEHEMERDAIRSMLEAQQEALEELKLESAELYAEAIKRDTSLFPFEKEGPHYTPPISNYQAPEGRYNDITKVYTQVEFKR
B6: cardiotrophin-like cytokine factor 1 (Clcf1) (protein, UniProt Q9QZM3 28-225)
chain: LNRTGDPGPGPSIQKTYDLTRYLEHQLRSLAGTYLNYLGPPFNEPDFNPPRLGAETLPRATVNLEVWRSLNDRLRLTQNYEAYSHLLCYLRGLNRQAATAELRRSLAHFCTSLQGLLGSIAGVMATLGYPLPQPLPGTEPAWAPGPAHSDFLQKMDDFWLLKELQTWLWRSAKDFNRLKKKMQPPAASVTLHLEAHGF
B7: HIV TAT specific factor 1 (Htatsf1) (protein, UniProt Q8BGC0 1-757)
chain: MSGNNLSGNDEFDEQLRMQELYGGDPKEGDTQNEPSGEAHSLGQPPDDTPYEWDLDKKAWFPKITEDFIATYQANYGFSSDGASSSTANVQDANTKAVEEPPQKEVPETPDSKRKGEKRKAESGWFHVEEDRNTNVYVSGLPPDITVDEFIQLMSKFGIIMRDPQTEEFKVKLYKDDQGNLKGDGLCCYLKKESVELALKLLDEDEIRGYKLHVEVAKFQLKGEYDASKKKKKCKDYKKKLSLQQKQLDWRPERRAGPNRLRHERVVILKNMFHPMDFEDDPLVLNEIREDLRVECSKFGQIRKLLLFDRHPDGVASVSFREPEEADHCIQTLDGRWFGGRQITAQAWDGTTDYQVEETSREREERLRGWEAFLNAPEASRGLRRMDSIAGSERPGPSRMRHFSEHPSMSNMKAQEATTGMAFEETIDENKFEKAEEGGESEGDASEKDAKEGGSDGDHPEREGGEGCSKKENEEGCPERALEPEEGNPQTEAQENGPEREARKKSKMDYEKNGFSKESEDNDLGKESEGEDSLKKESEDDDSEEESEEDSSEKQSQDGSDKEIEENGVKKDVDQDVSDKEFPEDVEKESEENETDKSEFDEGSERVLDEEGSEREFEEDSDEKEEEGDDDEEEVVYERVFDDDSDDIEEEEEADEKECEDADDKEEDNDIDEKLFDDSDEKEDEEDTDGKKDDDASDKVFEDNSNEKLFDEEEGPNEKLFDDSDERGTVGNVKEDGSQSTDSSFALSSSDDDDDEV

Molecular target: AHR-TAP (murine aryl-hydrocarbon receptor with C-terminal TAP tag) (murine) (UniProt P30561)
Experiment: affinity purification with mass spectrometry; AHR-TAP as bait from lysate of stable Hepa1c1c7 cells treated with DMSO (0.01%) or TCDD (10 nM; 30, 120 or 240 min); IgG Sepharose, AcTEV cleavage, calmodulin resin, 4°C; eluate separated on gel, bands digested and analysed by LC-MS/MS; GFP-TAP as negative control; 3 independent experiments

Row | Binder | binding
1 | B1 | binds
2 | B2 | binds
3 | B3 | binds
4 | B4 | binds
5 | B5 | binds
6 | B6 | binds
7 | B7 | binds
